Test: Aging of ground beef: free amino acid content

[Cl-].[Na+] [salt, sodium chloride]
FAA (Aging day 0): 66 µmol/g
FAA (Aging day 1, ambient temperature): 73 µmol/g
FAA (Aging day 7, ambient temperature): 70 µmol/g

— patent US20060270019A1, “Method for producing lactic acid bacterium culture containing bacteriocin and a method for preserving food products for by using it” (Ajinomoto Co., Inc., priority 2003, published 2006)
